{"source": "PubChem BioAssay AID504791 (Drosophila RNAi Screening Center, 2011)", "assay": "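Factors in Argonaute-based small RNA production and activity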 (primary screen)", "system": "Drosophila S2-derived reporter cells", "reagents": "long dsRNA against Drosophila genes, about 150-250 ng dsRNA per well (siRNA assay); about 80-120 ng (miRNA assay)", "duration": "about 5 days (siRNA assay); about 4 days (miRNA assay)", "conditions": "copper sulfate induction of reporters: 25 µM (siRNA assay); 200 mM stated (miRNA assay), 1-2 days before reading", "read-out": "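Dual luciferase assay: Renilla to firefly signal ratio in each well, scaled to the mean ratio of its plate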", "units": "stable assay Renilla, run 1 in luminescence; stable assay firefly, run 1 in luminescence", "active means": "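First-pass picks had plate-scaled ratios over 1.5 for the siRNA assay, over 1.6 for the miRNA assay, or under 0.6; two distinct dsRNAs had to score alike on retest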", "note": "The deposit covers about 23,000 reagents; shown is a random part of those that have a named target and a result. Over the whole deposit, 199 (0.86%) got an active call. 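Plate-scaled ratios behind the calls are not deposited; printed light signals are raw; many rows marked increased or decreased are still called inactive.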 Unmarked entries are inactive. The numbers tell different reagents against one gene apart. Not stated in the record: the direction of the score."}
The opening 4 records, to show the layout:
{"Target gene": "mia", "reagent no.": 1, "stable assay Renilla, run 1": 7602, "stable assay firefly, run 1": 3.89e5}
{"Target gene": "kek1", "reagent no.": 1, "stable assay Renilla, run 1": 7810, "stable assay firefly, run 1": 3.92e5}
{"Target gene": "CG4199", "reagent no.": 1, "stable assay Renilla, run 1": 9737, "stable assay firefly, run 1": 6.94e5}
{"Target gene": "CG4199", "reagent no.": 2, "stable assay Renilla, run 1": 9262, "stable assay firefly, run 1": 4.85e5}

The listing, from the start:
{"Target gene": "mia", "reagent no.": 1, "stable assay Renilla, run 1": 7602, "stable assay firefly, run 1": 3.89e5}
{"Target gene": "kek1", "reagent no.": 1, "stable assay Renilla, run 1": 7810, "stable assay firefly, run 1": 3.92e5}
{"Target gene": "CG4199", "reagent no.": 1, "stable assay Renilla, run 1": 9737, "stable assay firefly, run 1": 6.94e5}
{"Target gene": "CG4199", "reagent no.": 2, "stable assay Renilla, run 1": 9262, "stable assay firefly, run 1": 4.85e5}
{"Target gene": "Npc2c", "reagent no.": 1, "stable assay Renilla, run 1": 6123, "stable assay firefly, run 1": 3.84e5}
{"Target gene": "CG11893", "reagent no.": 1, "stable assay Renilla, run 1": 6887, "stable assay firefly, run 1": 3.17e5}
{"Target gene": "CG6553", "reagent no.": 1, "stable assay Renilla, run 1": 6931, "stable assay firefly, run 1": 4.00e5}
{"Target gene": "Arl5", "reagent no.": 1, "stable assay Renilla, run 1": 7639, "stable assay firefly, run 1": 4.78e5}
{"Target gene": "CG6574", "reagent no.": 1, "stable assay Renilla, run 1": 7559, "stable assay firefly, run 1": 3.90e5}
{"Target gene": "ddbt", "reagent no.": 1, "stable assay Renilla, run 1": 4396, "stable assay firefly, run 1": 3.91e5}
{"Target gene": "CG32599", "reagent no.": 1, "stable assay Renilla, run 1": 7823, "stable assay firefly, run 1": 4.41e5}
{"Target gene": "Or56a", "reagent no.": 1, "stable assay Renilla, run 1": 6427, "stable assay firefly, run 1": 3.06e5}
{"Target gene": "gcm2", "reagent no.": 1, "stable assay Renilla, run 1": 7467, "stable assay firefly, run 1": 3.79e5}
{"Target gene": "hb", "reagent no.": 1, "stable assay Renilla, run 1": 7095, "stable assay firefly, run 1": 4.16e5}
{"Target gene": "CG9062", "reagent no.": 1, "stable assay Renilla, run 1": 5967, "stable assay firefly, run 1": 3.26e5}
{"Target gene": "CG13887", "reagent no.": 1, "stable assay Renilla, run 1": 10385, "stable assay firefly, run 1": 4.75e5}
{"Target gene": "CG14036", "reagent no.": 1, "stable assay Renilla, run 1": 7491, "stable assay firefly, run 1": 4.04e5}
{"Target gene": "P5cr", "reagent no.": 1, "stable assay Renilla, run 1": 8354, "stable assay firefly, run 1": 3.91e5}
{"Target gene": "KdelR", "reagent no.": 1, "stable assay Renilla, run 1": 23310, "stable assay firefly, run 1": 9.61e5}
{"Target gene": "Spn43Aa", "reagent no.": 1, "stable assay Renilla, run 1": 45948, "stable assay firefly, run 1": 2.19e6}
{"Target gene": "CG17118", "reagent no.": 1, "stable assay Renilla, run 1": 7899, "stable assay firefly, run 1": 4.21e5}
{"Target gene": "Sas-4", "reagent no.": 1, "stable assay Renilla, run 1": 7012, "stable assay firefly, run 1": 3.74e5}
{"Target gene": "crol", "reagent no.": 1, "stable assay Renilla, run 1": 12646, "stable assay firefly, run 1": 4.57e5}
{"Target gene": "crol", "reagent no.": 2, "stable assay Renilla, run 1": 8208, "stable assay firefly, run 1": 5.03e5}
{"Target gene": "CG18231", "reagent no.": 1, "stable assay Renilla, run 1": 7882, "stable assay firefly, run 1": 3.56e5}
{"Target gene": "CG7333", "reagent no.": 1, "miRNA reporter change": "reporter ratio raised past the hit cutoff", "stable assay Renilla, run 1": 8178, "stable assay firefly, run 1": 4.66e5}
{"Target gene": "CG11920", "reagent no.": 1, "stable assay Renilla, run 1": 10157, "stable assay firefly, run 1": 4.30e5}
{"Target gene": "mre11", "reagent no.": 1, "stable assay Renilla, run 1": 47924, "stable assay firefly, run 1": 1.68e6}
{"Target gene": "mre11", "reagent no.": 2, "stable assay Renilla, run 1": 3499, "stable assay firefly, run 1": 2.92e5}
{"Target gene": "CG5506", "reagent no.": 1, "stable assay Renilla, run 1": 8924, "stable assay firefly, run 1": 4.44e5}
{"Target gene": "bs", "reagent no.": 1, "stable assay Renilla, run 1": 3051, "stable assay firefly, run 1": 2.13e5}
{"Target gene": "bs", "reagent no.": 2, "stable assay Renilla, run 1": 4231, "stable assay firefly, run 1": 4.19e5}
{"Target gene": "Npc1a", "reagent no.": 1, "stable assay Renilla, run 1": 6882, "stable assay firefly, run 1": 4.61e5}
{"Target gene": "Sbp2", "reagent no.": 1, "stable assay Renilla, run 1": 6978, "stable assay firefly, run 1": 4.85e5}
{"Target gene": "CG15376 (retired record)", "reagent no.": 1, "stable assay Renilla, run 1": 6084, "stable assay firefly, run 1": 4.79e5}
